In patent US20260070921A1, “COMPOUND, ENDOPLASMIC RETICULUM STRESS INHIBITOR, PHARMACEUTICAL PRODUCT, OPHTHALMIC AGENT, EYE DROPS, COMPOSITION, AND METHOD FOR PRODUCING COMPOUND” (KYOTO UNIVERSITY, priority 2022, published 2026):
For some of these results: At least one read-out could not be matched to a standard name with certainty. Some entries share one result that the patent states for a list of compounds.

Tested on: HEK293 cells
Assay: Fluorescence imaging of self-assemblies in living cells (DCVJ)
Assay type: cell-based
Conditions: 100 μM, DCVJ 1.0 μM, 8 h
Method: HEK293 cells were incubated with compound 1, 4, 5, or 6 (25 or 100 μM) in the presence of 1.0 μM DCVJ in DMEM (10% FBS). Fluorescence and bright-field images were taken with a CV1000 confocal microscope equipped with a 40× objective lens (Yokogawa Electric Corporation).
The ability of compound 1 and its derivatives, compounds 4 to 6, to form assemblies was also monitored in living cells. […] HEK293 cells were treated with compound 1, 4, 5, or 6 (25 μM or 100 μM) and 1.0 μM of DCVJ for 8 hours. Fluorescence and bright-field images were taken with a CV1000 confocal microscope. HEK293 cells were treated with compound 1, 4, 5, or 6 (25 or 100 μM) and DCVJ (1.0 μM) for 8 hours and observed with a confocal microscope. […] The self-assembling ability of the molecules of compound 6 may be due to its cellular activity at that concentration, even at 25 μM. […] To further support the importance of self-organization formation in cellular activity, dose-response curves for compounds 1 and 6 were determined. The biological activity of the compounds' molecular assembly is expected to be more cooperative than that of the monomer and to show a steeper dose-response curve (Reference Material 18 below). […] Compound 6 is referred to as “selfonamide” below. […] P. A High-Throughput Screen for Aggregation-Based Inhibition in a Large Compound Library. J Med Chem 2007, 50 (10), 2385-2390. https://doi.org/10.1021/jm061317y.

Compound	Size of assemblies/particles in living-cell imaging [μm]
NS(=O)(=O)c1ccc(Nc2ccn3c(n2)nc(=O)c2sc4cc(F)ccc4c23)cc1 [compound 1]	< 1
NS(=O)(=O)c1ccc(Nc2ccn3c(n2)nc(=O)c2sc4ccccc4c23)cc1 [compound 4]	< 1
COc1ccc2c(c1)sc1c(=O)nc3nc(Nc4ccc(S(N)(=O)=O)cc4)ccn3c12 [compound 6]	< 1

Tested on: not listed separately
Assay: Dynamic light scattering (DLS) of self-assemblies
Assay type: physicochemical
Conditions: not given
Text: In the graphs on the left, the vertical axis “Z-ave. (nm)” represents the average particle size. In the graphs on the right, the vertical axis “Derived Count Rate (kcps)” represents the derived count rate. The horizontal axis represents the molar concentration (PM) of PBS (pH of 7.4) and DMEM (10% FBS). Error bars represent s.d. (n=3).
“Z-ave.” represents the average size of particles. Error bars represent s.d. (n=3).
“Z-average” represents the average size of particles. Error bars represent s.d. (n=3).

Compound	Self-assembly activity (self-assembling ability)
NS(=O)(=O)c1ccc(Nc2ccn3c(n2)nc(=O)c2sc4cc5c(cc4c23)OCO5)cc1 [XD10]	confirmed to have self-assembly activity
COc1cc2sc3c(=O)nc4nc(Nc5ccc(S(N)(=O)=O)cc5)ccn4c3c2cc1OC [XD11]	confirmed to have self-assembly activity
CCOc1ccc2c(c1)sc1c(=O)nc3nc(Nc4ccc(S(N)(=O)=O)cc4)ccn3c12 [XD14]	confirmed to have self-assembly activity
CCCOc1ccc2c(c1)sc1c(=O)nc3nc(Nc4ccc(S(N)(=O)=O)cc4)ccn3c12 [XD15]	confirmed to have self-assembly activity
CCCCOc1ccc2c(c1)sc1c(=O)nc3nc(Nc4ccc(S(N)(=O)=O)cc4)ccn3c12 [XD16]	confirmed to have self-assembly activity
CCCCCCOc1ccc2c(c1)sc1c(=O)nc3nc(Nc4ccc(S(N)(=O)=O)cc4)ccn3c12 [XD17]	confirmed to have self-assembly activity
NS(=O)(=O)c1ccc(Nc2ccn3c(n2)nc(=O)c2sc4cc(OCc5ccccc5)ccc4c23)cc1 [XD18]	confirmed to have self-assembly activity
N=C(N)NS(=O)(=O)c1ccc(Nc2ccn3c(n2)nc(=O)c2sc4cc(F)ccc4c23)cc1 [XD19]	confirmed to have self-assembly activity
N=C(N)NS(=O)(=O)c1ccc(Nc2ccn3c(n2)nc(=O)c2sc4cc([N+](=O)[O-])ccc4c23)cc1 [XD20]	confirmed to have self-assembly activity
N=C(N)NS(=O)(=O)c1ccc(Nc2ccn3c(n2)nc(=O)c2sc4cc5c(cc4c23)OCO5)cc1 [XD23]	confirmed to have self-assembly activity
CCOc1ccc2c(c1)sc1c(=O)nc3nc(Nc4ccc(S(=O)(=O)NC(=N)N)cc4)ccn3c12 [XD24]	confirmed to have self-assembly activity
CCCCOc1ccc2c(c1)sc1c(=O)nc3nc(Nc4ccc(S(=O)(=O)NC(=N)N)cc4)ccn3c12 [XD26]	confirmed to have self-assembly activity
CCCCCCOc1ccc2c(c1)sc1c(=O)nc3nc(Nc4ccc(S(=O)(=O)NC(=N)N)cc4)ccn3c12 [XD27]	confirmed to have self-assembly activity

Continued, values first:

Self-assembly activity (self-assembling ability)	Compound
confirmed to have self-assembly activity	NS(=O)(=O)c1ccc(Nc2ccn3c(n2)nc(=O)c2sc4cc(Cl)ccc4c23)cc1 [XD8]
confirmed to have self-assembly activity	NS(=O)(=O)c1ccc(Nc2ccn3c(n2)nc(=O)c2sc4cc([N+](=O)[O-])ccc4c23)cc1 [XD9]
confirmed to have self-assembly activity	NS(=O)(=O)c1ccc(Nc2ccn3c(n2)nc(=O)c2sc4cc(Br)ccc4c23)cc1 [XD12]
confirmed to have self-assembly activity	NS(=O)(=O)c1ccc(Nc2ccn3c(n2)nc(=O)c2sc4cc(F)c(F)cc4c23)cc1 [XD13]
confirmed to have self-assembly activity	COc1ccc2c(c1)sc1c(=O)nc3nc(Nc4ccc(S(=O)(=O)NC(=N)N)cc4)ccn3c12 [XD21]
confirmed to have self-assembly activity	N=C(N)NS(=O)(=O)c1ccc(Nc2ccn3c(n2)nc(=O)c2sc4cc(F)c(F)cc4c23)cc1 [XD22]
confirmed to have self-assembly activity	CCCOc1ccc2c(c1)sc1c(=O)nc3nc(Nc4ccc(S(=O)(=O)NC(=N)N)cc4)ccn3c12 [XD25]
confirmed to have self-assembly activity	N=C(N)NS(=O)(=O)c1ccc(Nc2ccn3c(n2)nc(=O)c2sc4cc(OCc5ccccc5)ccc4c23)cc1 [XD28]

Tested on: not listed separately
Assay: DCVJ fluorescence dose-assembly curve in cell culture medium
Assay type: physicochemical
Conditions: DMEM (10% FBS, 1% DMSO), 1.0 μM DCVJ; read-out: Apparent half-maximal assembly concentration (AC50)

Compound	AC50 [µM]
NS(=O)(=O)c1ccc(Nc2ccn3c(n2)nc(=O)c2sc4cc(F)ccc4c23)cc1 [compound 1]	29.7
NS(=O)(=O)c1ccc(Nc2ccn3c(n2)nc(=O)c2sc4ccccc4c23)cc1 [compound 4]	25.1
Cc1ccc2c(c1)sc1c(=O)nc3nc(Nc4ccc(S(N)(=O)=O)cc4)ccn3c12 [compound 5]	16.9
COc1ccc2c(c1)sc1c(=O)nc3nc(Nc4ccc(S(N)(=O)=O)cc4)ccn3c12 [compound 6]	9.3
